Patent US20050250821A1, “Quaternary ammonium compounds in the treatment of water and as antimicrobial wash” (priority 2004, published 2005)

How the values were obtained:
[1] = test system: Aspergillus; experiment: microbe, parasite or virus in culture; settings: for Inhibition (% of control): 72 h
Description: (§1) A Petroff Hausser counting chamber was used to determine the level of inoculum.

[2] = test system: Fusarium; experiment: microbe, parasite or virus in culture; settings: for Inhibition (% of control): 72 h
Description: as §1

[3] = test system: Salmonella Enteritidis (ATCC 13076); experiment: microbe, parasite or virus in culture
Method: as §1
(§2) An Optimax microtiter plate reader (Molecular Devices, Sunnyvale, Calif.) at 405 nm wavelength was used to measure the optical density of the suspension in each well. Plates were read kinetically over 24 h. The temperature was maintained at 35° C. All results reflect the average optical density measurements of four microtiter wells. […] A 100 μl aliquot of test organism and a 100 μl aliquot of experimental treatment were dispensed into individual microtiter plate wells.

[4] = test system: Candida castellii (field strain); experiment: microbe, parasite or virus in culture
Method: as §1, §2

[5] = test system: Staphylococcus aureus (ATCC 25923); settings: S. aureus
Method: as §1, §2

CCCCCCCCCCCCCCCC[n+]1ccccc1 [CPC, Cetylpyridinium chloride]
Inhibition (% of control) ([1]; 500 ppm CPC): 57.2 % of control
Inhibition (% of control) ([1]; 1000 ppm CPC): 100.0 % of control
Inhibition (% of control) ([1]; 1500 ppm CPC): 100.0 % of control
MIC ([1]; read-out: MIC level): < 1000 µg/mL
MIC [2]: > 1500 µg/mL
Inhibition (% of control) ([2]; 500 ppm CPC): 61.0 % of control
Inhibition (% of control) ([2]; 1000 ppm CPC): 64.3 % of control
Inhibition (% of control) ([2]; 1500 ppm CPC): 69.0 % of control
growth inhibition ([3]; S. Enteritidis, 2.5 ppm CPC alone): did not inhibit
MIC ([3]; Salmonella enterica, ATCC13076|ENTERITIDIS, 24 h, read-out: Minimum Inhibitory Concentration (MIC)): 10 µg/mL
concentration giving complete growth inhibition ([4]; C. castellii, previous experiments): 100 ppm
MIC ([4]; Oligophagozyma castellii, read-out: MIC required for complete inhibition): > 25 µg/mL
growth inhibition ([5]; 2.5 ppm CPC alone): did not inhibit
duration of growth inhibition ([5]; 2.5 ppm treatment level): 8 h
concentration that completely inhibited growth ([5]; FIG. 2): 10 ppm
